Measurements from paper doi:10.1101/373761.
Results are given in words; binding and its absence hold for the method and conditions named. Binding seen in cells or lysates may run through a third protein. Some binding calls cover weakened binding; strength is not graded here. For some of these results: Sequences can lack the tags named with a protein.

Sequences of proteins named here, by UniProt entry; tags and fusion partners are left off.
UniProt P03165: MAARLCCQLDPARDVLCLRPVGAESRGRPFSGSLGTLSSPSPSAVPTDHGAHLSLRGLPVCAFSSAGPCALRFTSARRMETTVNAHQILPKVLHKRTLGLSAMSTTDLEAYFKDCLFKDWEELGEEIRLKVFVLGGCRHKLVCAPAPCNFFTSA
UniProt Q13547: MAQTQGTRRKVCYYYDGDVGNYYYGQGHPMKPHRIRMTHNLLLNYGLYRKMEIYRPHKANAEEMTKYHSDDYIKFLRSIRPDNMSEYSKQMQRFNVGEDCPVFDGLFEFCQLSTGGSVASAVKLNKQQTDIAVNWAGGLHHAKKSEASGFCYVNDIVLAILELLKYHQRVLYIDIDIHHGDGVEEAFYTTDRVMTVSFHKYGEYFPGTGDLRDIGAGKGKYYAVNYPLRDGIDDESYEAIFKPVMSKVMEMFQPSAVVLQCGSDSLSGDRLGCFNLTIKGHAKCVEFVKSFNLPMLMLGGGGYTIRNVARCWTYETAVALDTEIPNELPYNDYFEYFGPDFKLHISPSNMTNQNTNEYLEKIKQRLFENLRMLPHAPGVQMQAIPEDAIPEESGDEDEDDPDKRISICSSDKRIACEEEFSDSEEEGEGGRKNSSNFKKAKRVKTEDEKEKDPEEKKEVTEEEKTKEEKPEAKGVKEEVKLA
UniProt Q00987: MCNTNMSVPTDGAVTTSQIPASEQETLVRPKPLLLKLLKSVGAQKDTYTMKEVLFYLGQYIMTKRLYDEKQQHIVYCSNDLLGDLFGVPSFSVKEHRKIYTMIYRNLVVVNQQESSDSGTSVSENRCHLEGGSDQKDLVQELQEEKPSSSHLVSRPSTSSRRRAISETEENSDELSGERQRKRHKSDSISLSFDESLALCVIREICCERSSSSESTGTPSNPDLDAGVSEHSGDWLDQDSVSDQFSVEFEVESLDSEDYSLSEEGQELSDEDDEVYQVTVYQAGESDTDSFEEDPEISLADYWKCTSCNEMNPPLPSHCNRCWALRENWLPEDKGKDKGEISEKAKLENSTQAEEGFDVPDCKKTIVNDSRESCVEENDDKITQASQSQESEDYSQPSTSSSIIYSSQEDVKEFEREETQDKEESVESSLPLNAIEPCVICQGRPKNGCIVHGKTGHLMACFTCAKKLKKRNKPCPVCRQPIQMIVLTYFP

Legend:
[1] = target: HBx (hepatitis B virus) (UniProt P03165); test: co-IP
[2] = target: T1, glycogen synthase 2 (GYS2) (human (endogenous in HepG2 and QGY-7703)) (UniProt P54840); test: co-IP
T1 sequence: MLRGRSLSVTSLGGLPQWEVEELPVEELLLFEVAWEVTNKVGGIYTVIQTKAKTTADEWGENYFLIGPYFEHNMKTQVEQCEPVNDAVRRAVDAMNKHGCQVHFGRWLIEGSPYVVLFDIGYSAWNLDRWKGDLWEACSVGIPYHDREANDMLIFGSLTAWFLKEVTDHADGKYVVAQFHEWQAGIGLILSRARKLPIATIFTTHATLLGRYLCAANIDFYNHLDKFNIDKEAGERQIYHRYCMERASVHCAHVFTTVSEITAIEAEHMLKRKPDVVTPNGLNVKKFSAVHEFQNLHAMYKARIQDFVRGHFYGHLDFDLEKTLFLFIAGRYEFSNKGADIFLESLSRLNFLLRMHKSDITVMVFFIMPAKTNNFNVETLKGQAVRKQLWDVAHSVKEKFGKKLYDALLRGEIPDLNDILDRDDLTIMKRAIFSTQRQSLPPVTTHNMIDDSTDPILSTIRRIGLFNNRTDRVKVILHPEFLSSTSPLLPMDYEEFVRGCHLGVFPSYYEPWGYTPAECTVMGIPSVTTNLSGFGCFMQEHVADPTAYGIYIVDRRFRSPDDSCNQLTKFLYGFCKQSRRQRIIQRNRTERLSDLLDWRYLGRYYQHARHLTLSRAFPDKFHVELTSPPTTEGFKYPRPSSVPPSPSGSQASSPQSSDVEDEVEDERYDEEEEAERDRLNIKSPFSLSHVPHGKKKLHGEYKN

[3] = target: T2, GST-tagged GYS2 (human) (UniProt P54840); test: pull-down
T2 sequence: T1 sequence

“HDAC1 (from UniProt Q13547 1-482) (enzyme)” was tested, and the binding [1] was “binds”.

In the case of “MDM2 (from UniProt Q00987 1-491) (enzyme)”, the binding [2] is reported as “binds”.

In the case of “His-tagged MDM2 (from UniProt Q00987 1-491) (enzyme)”, the binding [3] is reported as “binds”.

In the case of “His-tagged p53 (from UniProt P04637 1-393)”, the binding [3] is reported as “binds”.
